PubChem BioAssay AID743454 | Peter MacCallum Cancer Centre – 2014
In all, the deposit lists about 18,000 reagents; below is an unselected part. 450 of them (2.5%) count as active. 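Single biological run; no consistent viability z cut-off exists, so the class columns, not z-scores, define the calls.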 The numbers tell different reagents against one gene apart. Reagent sequences are not shown.

Assay: 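Genes whose loss kills vorinostat-resistant colon cancer cells under vorinostat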 (primary screen)
System: human HCT116-VR colon cancer cells, selected for vorinostat resistance
Knock-down reagent: siRNA pool against human genes, 40 nM siRNA pool
Time to read-out: vorinostat for 24 h, read-out about 72 h after transfection
Challenge: vorinostat at 2.5 µM final
Measurement: 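Two measures, CellTiter-Fluor viability and luminescent caspase 3/7 activity, each as fold change against same-plate mock wells, mean of duplicates, then screen-wide robust z-score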
Direction: viability robust z-score: higher = more viable cells than screen typical; caspase robust z-score: higher = more caspase 3/7 activity than screen typical
Call rule: 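a knock-down is a hit when classed RV1 or RV2 for lowered viability, or CA1 or CA2 for caspase activation; those lethal without drug were dropped; hits were retested singly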

| gene | reagent no. | viability hit class | caspase hit class | viability robust z-score | caspase robust z-score | outcome |
| --- | --- | --- | --- | --- | --- | --- |
| ZNF19 | 1 | no change | no change | -0.58 | 1.96 | inactive |
| ARMC10 | 1 | no change | no change | -0.8 | -1.23 | inactive |
| SLC9A2 | 1 | no change | no change | -0.2 | 0.01 | inactive |
| CXCR5 | 1 | no change | no change | 0.36 | 1.43 | inactive |
| RSRP1 | 1 | no change | no change | 1.52 | 2.02 | inactive |
| SCPEP1 | 1 | no change | no change | 1.22 | 0.76 | inactive |
| OXR1 | 1 | no change | no change | 1.08 | -0.32 | inactive |
| FOXD4L1 | 1 | no change | no change | 0.44 | 2.11 | inactive |
| HEXA | 1 | no change | no change | -1.72 | 0.35 | inactive |
| MRE11 | 1 | no change | no change | 1 | 1.5 | inactive |
| USH2A | 1 | no change | no change | 0.62 | -1.29 | inactive |
| NHERF1 | 1 | no change | no change | -0.1 | 1.04 | inactive |
| SFMBT1 | 1 | no change | no change | 0.68 | -0.34 | inactive |
| VPS26A | 1 | no change | no change | 0.26 | -0.75 | inactive |
| PCDHGC5 | 1 | no change | no change | 0.18 | 2.3 | inactive |
| LPAR1 | 1 | no change | no change | -0.39 | 1.86 | inactive |
| BRK1 | 1 | no change | no change | -0.24 | -0.92 | inactive |
| TBC1D8 | 1 | no change | no change | -1.38 | 0.09 | inactive |
| TMEM86B | 1 | no change | no change | 0.62 | 0.22 | inactive |
| GTF2H3 | 1 | no change | no change | -0.1 | 2.84 | inactive |
| IL2RA | 1 | no change | no change | 0.9 | 0.34 | inactive |
| USP35 | 1 | no change | no change | -0.97 | 0.24 | inactive |
| CCSER1 | 1 | no change | no change | 0.4 | 0.32 | inactive |
| DEFA6 | 1 | no change | no change | 0.42 | -0.58 | inactive |
| KLHDC4 | 1 | no change | no change | 0.96 | -0.78 | inactive |
| RASSF5 | 1 | no change | no change | 1.18 | -0.38 | inactive |
| NDN | 1 | no change | no change | -0.3 | 1.31 | inactive |
| HSCB | 1 | no change | no change | -0.3 | -1.31 | inactive |
| ATP6V1G3 | 1 | no change | no change | 0.75 | -0.81 | inactive |
| SLCO1B7 | 1 | no change | no change | 1.36 | 0.87 | inactive |
| LOX | 1 | no change | no change | 0 | -1.11 | inactive |
| HOXD8 | 1 | no change | no change | 1.17 | -0.03 | inactive |
| GALP | 1 | no change | no change | 0.59 | 0.91 | inactive |
| TMEM259 | 1 | no change | no change | -0.64 | 0.64 | inactive |
| BOD1L1 | 1 | no change | no change | 0.71 | 0.52 | inactive |
| S100PBP | 1 | no change | no change | -2.04 | 0.68 | inactive |
| GNAT2 | 1 | no change | no change | 0.64 | 1.9 | inactive |
| ARHGAP27 | 1 | no change | no change | 1.01 | -0.09 | inactive |
| ARHGAP27 | 2 | no change | no change | 1.68 | 2.36 | inactive |
| CTSD | 1 | no change | no change | 0.85 | -0.29 | inactive |
| QDPR | 1 | no change | no change | 0.28 | -0.81 | inactive |
| OR5M1 | 1 | no change | no change | -0.28 | 0.66 | inactive |
| TEX9 | 1 | no change | no change | 1.11 | 0.01 | inactive |
| FGG | 1 | no change | no change | -0.58 | -1.44 | inactive |
| AKR1C3 | 1 | no change | no change | -0.24 | 1.7 | inactive |
| LARS1 | 1 | no change | no change | -1.05 | 0.94 | inactive |
| POLR3B | 1 | no change | no change | -1.48 | 1.5 | inactive |
| ZIC4 | 1 | no change | no change | 0.2 | -0.48 | inactive |
| ZP1 | 1 | no change | no change | 0.8 | -0.11 | inactive |
| MCL1 | 1 | no change | no change | -0.17 | 1.29 | inactive |
| ADAP2 | 1 | no change | no change | -0.52 | -0.18 | inactive |
| KRTAP12-1 | 1 | no change | no change | -0.3 | 0.64 | inactive |
| CDKN2D | 1 | no change | no change | -0.89 | 0.38 | inactive |
| DEFB1 | 1 | no change | no change | -0.15 | -0.06 | inactive |
| ZNF560 | 1 | no change | no change | 1.31 | -0.12 | inactive |
| PRR11 | 1 | no change | no change | 0.46 | 0.36 | inactive |
| MUC21 | 1 | no change | no change | 0.85 | -0.2 | inactive |
